This is one part of the list.

Chains of the proteins cited; added tags and fusions are not shown. Lines headed by an entry give the natural chain unless they say otherwise; changes in a name come on top.
UniProt Q8TDY2, whole entry, looked up: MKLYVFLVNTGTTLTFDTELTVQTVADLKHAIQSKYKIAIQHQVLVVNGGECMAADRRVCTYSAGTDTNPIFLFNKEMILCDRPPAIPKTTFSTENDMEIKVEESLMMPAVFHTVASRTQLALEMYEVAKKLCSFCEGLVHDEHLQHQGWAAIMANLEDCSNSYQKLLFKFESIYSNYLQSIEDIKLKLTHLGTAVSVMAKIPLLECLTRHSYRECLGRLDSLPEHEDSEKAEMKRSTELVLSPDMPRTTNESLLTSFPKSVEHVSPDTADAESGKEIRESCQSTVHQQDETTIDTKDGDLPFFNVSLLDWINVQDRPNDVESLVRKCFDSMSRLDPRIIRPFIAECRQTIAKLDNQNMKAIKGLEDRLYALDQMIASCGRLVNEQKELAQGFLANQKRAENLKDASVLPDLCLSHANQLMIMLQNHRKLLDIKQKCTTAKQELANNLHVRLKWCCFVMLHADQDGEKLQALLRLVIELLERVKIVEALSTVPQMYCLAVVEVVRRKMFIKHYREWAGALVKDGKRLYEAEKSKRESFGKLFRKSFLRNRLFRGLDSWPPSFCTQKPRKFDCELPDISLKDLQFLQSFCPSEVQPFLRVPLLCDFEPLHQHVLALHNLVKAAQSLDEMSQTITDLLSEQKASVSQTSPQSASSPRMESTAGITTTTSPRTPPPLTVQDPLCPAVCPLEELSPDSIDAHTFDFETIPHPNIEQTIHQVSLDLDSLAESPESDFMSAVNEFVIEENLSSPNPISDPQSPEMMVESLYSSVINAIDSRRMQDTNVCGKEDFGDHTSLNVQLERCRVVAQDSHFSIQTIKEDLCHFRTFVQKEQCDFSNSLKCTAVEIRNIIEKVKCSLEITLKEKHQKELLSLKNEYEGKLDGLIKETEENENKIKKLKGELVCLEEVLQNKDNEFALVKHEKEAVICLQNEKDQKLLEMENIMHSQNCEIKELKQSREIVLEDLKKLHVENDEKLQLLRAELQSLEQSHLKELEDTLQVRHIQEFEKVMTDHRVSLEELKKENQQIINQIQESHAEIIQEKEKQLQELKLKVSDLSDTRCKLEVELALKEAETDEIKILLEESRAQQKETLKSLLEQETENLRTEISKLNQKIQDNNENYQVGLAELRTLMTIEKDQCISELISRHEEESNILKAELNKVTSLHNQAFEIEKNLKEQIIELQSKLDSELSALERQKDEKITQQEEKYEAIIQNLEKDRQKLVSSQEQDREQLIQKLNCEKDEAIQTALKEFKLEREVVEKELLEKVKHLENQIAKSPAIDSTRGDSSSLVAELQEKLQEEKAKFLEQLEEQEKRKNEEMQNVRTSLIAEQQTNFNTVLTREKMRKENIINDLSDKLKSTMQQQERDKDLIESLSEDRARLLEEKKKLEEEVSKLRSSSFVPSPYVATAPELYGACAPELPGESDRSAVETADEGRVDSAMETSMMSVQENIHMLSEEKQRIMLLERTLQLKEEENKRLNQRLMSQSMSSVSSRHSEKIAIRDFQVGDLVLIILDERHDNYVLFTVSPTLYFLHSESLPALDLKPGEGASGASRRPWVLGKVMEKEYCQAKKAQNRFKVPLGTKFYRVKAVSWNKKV
UniProt Q9H082: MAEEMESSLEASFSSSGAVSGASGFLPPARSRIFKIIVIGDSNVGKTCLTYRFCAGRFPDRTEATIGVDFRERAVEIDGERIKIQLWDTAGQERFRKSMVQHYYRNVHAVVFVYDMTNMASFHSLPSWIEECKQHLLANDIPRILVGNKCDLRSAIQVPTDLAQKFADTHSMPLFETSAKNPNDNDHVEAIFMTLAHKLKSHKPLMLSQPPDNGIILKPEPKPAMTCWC
UniProt P11233: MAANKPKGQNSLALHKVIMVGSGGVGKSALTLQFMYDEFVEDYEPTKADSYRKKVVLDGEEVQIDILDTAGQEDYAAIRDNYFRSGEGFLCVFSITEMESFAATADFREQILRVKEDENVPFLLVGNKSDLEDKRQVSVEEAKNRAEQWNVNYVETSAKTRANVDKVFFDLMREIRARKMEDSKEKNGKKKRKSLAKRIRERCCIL
UniProt Q5T160: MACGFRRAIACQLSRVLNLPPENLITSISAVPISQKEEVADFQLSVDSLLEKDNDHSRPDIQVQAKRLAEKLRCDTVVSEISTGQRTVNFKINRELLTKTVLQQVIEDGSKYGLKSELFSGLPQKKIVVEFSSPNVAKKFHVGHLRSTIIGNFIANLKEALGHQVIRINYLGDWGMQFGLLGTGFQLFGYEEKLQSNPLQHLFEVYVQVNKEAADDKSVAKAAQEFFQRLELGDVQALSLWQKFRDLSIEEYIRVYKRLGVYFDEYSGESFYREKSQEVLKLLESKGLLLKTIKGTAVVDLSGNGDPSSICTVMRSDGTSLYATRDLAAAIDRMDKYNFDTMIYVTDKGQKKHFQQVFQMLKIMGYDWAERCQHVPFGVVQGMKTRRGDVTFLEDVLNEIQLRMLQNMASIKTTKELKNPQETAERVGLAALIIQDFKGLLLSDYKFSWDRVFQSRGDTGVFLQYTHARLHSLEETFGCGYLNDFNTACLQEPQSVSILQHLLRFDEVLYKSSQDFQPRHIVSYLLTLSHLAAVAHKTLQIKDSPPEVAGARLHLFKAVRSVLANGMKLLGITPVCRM
UniProt Q9NW64: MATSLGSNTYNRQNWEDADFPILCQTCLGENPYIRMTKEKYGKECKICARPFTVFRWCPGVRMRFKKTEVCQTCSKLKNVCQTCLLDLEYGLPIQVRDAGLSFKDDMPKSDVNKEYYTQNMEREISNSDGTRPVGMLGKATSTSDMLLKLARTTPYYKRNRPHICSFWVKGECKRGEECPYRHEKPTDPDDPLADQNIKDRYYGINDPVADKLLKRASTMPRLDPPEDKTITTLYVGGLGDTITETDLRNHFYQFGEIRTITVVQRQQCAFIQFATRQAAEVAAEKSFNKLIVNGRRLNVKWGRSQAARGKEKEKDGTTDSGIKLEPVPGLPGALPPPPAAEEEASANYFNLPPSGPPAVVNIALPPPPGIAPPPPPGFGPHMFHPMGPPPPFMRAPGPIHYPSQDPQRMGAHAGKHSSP
UniProt P54136: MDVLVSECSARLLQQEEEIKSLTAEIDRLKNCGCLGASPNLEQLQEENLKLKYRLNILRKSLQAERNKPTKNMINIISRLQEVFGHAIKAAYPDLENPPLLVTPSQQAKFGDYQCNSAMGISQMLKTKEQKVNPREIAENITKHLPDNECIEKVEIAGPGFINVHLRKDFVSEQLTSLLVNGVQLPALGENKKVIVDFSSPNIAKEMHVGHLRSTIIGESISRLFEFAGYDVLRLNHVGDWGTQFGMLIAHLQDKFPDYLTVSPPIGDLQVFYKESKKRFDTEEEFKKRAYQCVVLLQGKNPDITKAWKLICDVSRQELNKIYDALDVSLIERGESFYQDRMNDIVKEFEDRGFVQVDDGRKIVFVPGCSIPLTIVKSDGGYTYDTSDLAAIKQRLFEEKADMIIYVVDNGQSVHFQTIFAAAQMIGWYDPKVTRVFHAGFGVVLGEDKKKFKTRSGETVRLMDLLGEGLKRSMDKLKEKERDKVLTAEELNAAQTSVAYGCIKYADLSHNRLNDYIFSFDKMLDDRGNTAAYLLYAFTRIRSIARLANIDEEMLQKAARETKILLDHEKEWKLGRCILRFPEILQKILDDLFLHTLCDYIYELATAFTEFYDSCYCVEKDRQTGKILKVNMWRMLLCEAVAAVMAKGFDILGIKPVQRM
UniProt P49756, whole entry, looked up: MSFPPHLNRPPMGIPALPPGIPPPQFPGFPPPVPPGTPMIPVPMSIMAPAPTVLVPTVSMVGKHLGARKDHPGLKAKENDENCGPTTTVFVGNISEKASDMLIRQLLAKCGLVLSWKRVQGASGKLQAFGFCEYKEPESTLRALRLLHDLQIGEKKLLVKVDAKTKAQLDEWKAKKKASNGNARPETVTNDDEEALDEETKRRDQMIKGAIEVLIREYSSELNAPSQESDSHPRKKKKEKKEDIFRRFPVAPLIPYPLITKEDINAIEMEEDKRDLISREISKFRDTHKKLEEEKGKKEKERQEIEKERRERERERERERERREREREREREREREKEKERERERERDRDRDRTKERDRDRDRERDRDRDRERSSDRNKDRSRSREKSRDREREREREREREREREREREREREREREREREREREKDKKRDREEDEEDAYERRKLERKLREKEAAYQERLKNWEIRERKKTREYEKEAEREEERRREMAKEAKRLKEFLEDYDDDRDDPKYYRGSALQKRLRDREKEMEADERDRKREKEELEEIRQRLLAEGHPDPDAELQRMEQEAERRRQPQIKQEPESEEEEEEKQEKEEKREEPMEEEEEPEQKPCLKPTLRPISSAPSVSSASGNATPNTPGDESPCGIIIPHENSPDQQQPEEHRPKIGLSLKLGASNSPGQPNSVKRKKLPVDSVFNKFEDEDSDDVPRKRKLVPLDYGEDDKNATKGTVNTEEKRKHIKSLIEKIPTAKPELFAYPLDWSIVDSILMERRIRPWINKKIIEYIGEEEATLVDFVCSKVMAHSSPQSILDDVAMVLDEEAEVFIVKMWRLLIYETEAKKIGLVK
UniProt Q9UKM9: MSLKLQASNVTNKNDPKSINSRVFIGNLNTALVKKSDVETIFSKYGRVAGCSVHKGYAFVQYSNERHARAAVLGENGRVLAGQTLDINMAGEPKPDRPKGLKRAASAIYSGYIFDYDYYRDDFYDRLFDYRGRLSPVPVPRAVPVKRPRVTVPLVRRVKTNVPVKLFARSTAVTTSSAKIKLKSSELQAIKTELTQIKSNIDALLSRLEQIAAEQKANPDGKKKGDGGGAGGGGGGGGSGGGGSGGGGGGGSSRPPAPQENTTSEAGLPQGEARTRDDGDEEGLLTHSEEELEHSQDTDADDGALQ
UniProt Q96D70: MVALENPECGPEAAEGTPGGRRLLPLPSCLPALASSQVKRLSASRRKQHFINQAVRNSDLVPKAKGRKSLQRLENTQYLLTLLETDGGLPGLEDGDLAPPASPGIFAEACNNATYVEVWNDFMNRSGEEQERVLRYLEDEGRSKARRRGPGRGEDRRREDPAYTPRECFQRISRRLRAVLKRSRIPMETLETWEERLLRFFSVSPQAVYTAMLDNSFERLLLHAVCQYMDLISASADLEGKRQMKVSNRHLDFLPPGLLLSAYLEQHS
UniProt Q9UI14, whole entry, looked up: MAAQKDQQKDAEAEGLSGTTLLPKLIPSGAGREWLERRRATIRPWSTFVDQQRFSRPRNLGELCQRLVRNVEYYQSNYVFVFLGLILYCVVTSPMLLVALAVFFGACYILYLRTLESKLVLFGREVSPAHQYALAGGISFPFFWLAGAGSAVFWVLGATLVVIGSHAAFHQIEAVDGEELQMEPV
UniProt Q06609, whole entry, looked up: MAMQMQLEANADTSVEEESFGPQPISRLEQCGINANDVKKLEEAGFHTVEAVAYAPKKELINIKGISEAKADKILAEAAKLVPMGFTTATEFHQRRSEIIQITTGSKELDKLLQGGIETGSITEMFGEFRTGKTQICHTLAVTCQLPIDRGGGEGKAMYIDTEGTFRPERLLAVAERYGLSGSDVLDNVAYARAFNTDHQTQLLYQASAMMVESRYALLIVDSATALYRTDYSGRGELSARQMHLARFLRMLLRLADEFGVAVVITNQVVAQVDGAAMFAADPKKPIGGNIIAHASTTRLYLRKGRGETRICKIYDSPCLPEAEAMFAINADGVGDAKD

Compound in the first test: CN1CCN(CCOc2cc(OC3CCOCC3)c3c(Nc4c(Cl)ccc5c4OCO5)ncnc3c2)CC1 [saracatinib]
Kind of test: log2 fold change, soluble protein after heating vs DMSO (PISA); higher = thermal stabilisation; K562 cells, 10 uM, 30 min; active = over 0.2 and 3.5 SD of the protein, either way, in both replicates (recomputed). In short, it runs like this:
(§1)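 Quantification of soluble protein used TMTpro 16plex LC-MS/MS, with channel sums equalised. Samples were the supernatant after 21,000xg for 90 min of pooled aliquots from K562 cells (2×10^6 cells/mL) treated with 10 μM compound for 30 min, heated for 3 min over 48°C-58°C, and extracted in PBS with 0.5% NP-40 at 4°C. Values, from duplicates, describe thermal stability against control samples on a log2 fold-change scale.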
Take RAB11FIP1 (UniProt Q6WKZ4): the log2 fold change is inactive: 0.021.
As to RB1CC1 (UniProt Q8TDY2), the log2 fold change is inactive: -0.065.
The same measure, in the same setting: with RAB33B (UniProt Q9H082) the figure was inactive: 0.158; with RANBP2 (UniProt P49792), inactive: -0.011; with RBM26 isoform 2 (UniProt Q5T8P6), inactive: -0.01.
Regarding RBM33 (UniProt Q96EV2), the log2 fold change is inactive: 0.071.
Take RALA (UniProt P11233): the log2 fold change was active: 0.203.
Same read-out and setting: the result for RAB9A (UniProt P51151) reads inactive: 0.015; that for RAD50, A0A494C0Y7, inactive: -0.101; that for RARS2 (UniProt Q5T160), inactive: 0.005.
Consider RAD51D (UniProt O75771), for which the log2 fold change is inactive: 0.043.
Still for that read-out and setting: with RAB3IL1 (UniProt Q8TBN0) the figure was inactive: 0.007.
Still for that read-out and setting: with RAC1 (UniProt P63000) the figure was inactive: 0.097.
Regarding RBM22 (UniProt Q9NW64), the log2 fold change is inactive: 0.016.
On the same count and under the same terms, the result for RARS (UniProt P54136) reads inactive: -0.103; that for RABGAP1L isoform 3 (UniProt Q5R372), inactive: 0.063.
Turning to RAB3GAP2 (UniProt Q9H2M9), the log2 fold change is inactive: -0.111.
The same measure, in the same setting: with RANBP6 (UniProt O60518) the figure was inactive: -0.061.
Turning to RBM27 (UniProt Q9P2N5), the log2 fold change is inactive: 0.04.
With RAC3 (UniProt P60763), the log2 fold change is inactive: 0.036.
Regarding RBM25 (UniProt P49756), the log2 fold change is inactive: -0.025.
For the target RBM14 (UniProt Q96PK6), the log2 fold change was inactive: 0.039.
On to RAF1 isoform 2 (UniProt P04049), for which the log2 fold change is inactive: -0.029.
Still for that read-out and setting: the result for RBBP7 (UniProt Q16576) reads inactive: 0.048; that for RALY (UniProt Q9UKM9), inactive: -0.091; that for R3HDM4 (UniProt Q96D70), inactive: 0.095.
On the same count and under the same terms, the result for RAB8B (UniProt Q92930) reads inactive: 0.084; that for RABGAP1L isoform 5 (UniProt Q5R372), inactive: -0.027; that for RAVER1 (UniProt E9PAU2), inactive: -0.086.
Same read-out and setting: the result for RABAC1 (UniProt Q9UI14) reads inactive: 0.066; that for RAB5C isoform 2 (UniProt P51148), inactive: 0.08; that for RAD51 (UniProt Q06609), inactive: -0.013.
RAD50 isoform 2 (UniProt Q92878): the log2 fold change was inactive: 0.012.

Compound in another test: CN1CCN(c2nc(C3=C(c4c[nH]c5ccccc45)C(=O)NC3=O)c3ccccc3n2)CC1 [sotrastaurin]
Described as above. The method, boiled down: as §1
As to RAB11FIP1 (UniProt Q6WKZ4), the log2 fold change was inactive: -0.094.
As to RB1CC1 (UniProt Q8TDY2), the log2 fold change was inactive: -0.108.
On to RAB33B (UniProt Q9H082), for which the log2 fold change is inactive: 0.057.
With RANBP2 (UniProt P49792), the log2 fold change was inactive: -0.06.
RBM26 isoform 2 (UniProt Q5T8P6): the log2 fold change was inactive: -0.193.
Turning to RBM33 (UniProt Q96EV2), the log2 fold change was inactive: -0.017.
Same read-out and setting: with RALA (UniProt P11233) the figure was inactive: 0.05.
For the target RAB9A (UniProt P51151), the log2 fold change was inactive: 0.02.
Take RAD50, A0A494C0Y7: the log2 fold change was inactive: 0.048.
Consider RARS2 (UniProt Q5T160), for which the log2 fold change is inactive: -0.101.
As to RAB3IL1 (UniProt Q8TBN0), the log2 fold change is inactive: -0.02.
On the same count and under the same terms, the result for RAC1 (UniProt P63000) reads inactive: -0.041; that for RBM22 (UniProt Q9NW64), inactive: -0.013.
On to RARS (UniProt P54136), for which the log2 fold change is inactive: -0.192.
Same read-out and setting: with RABGAP1L isoform 3 (UniProt Q5R372) the figure was inactive: -0.042; with RAB3GAP2 (UniProt Q9H2M9), inactive: -0.195; with RANBP6 (UniProt O60518), inactive: 0.225.
As for RBM27 (UniProt Q9P2N5), the log2 fold change was inactive: -0.039.
For the target RAC3 (UniProt P60763), the log2 fold change is inactive: 0.11.
Same read-out and setting: with RBM25 (UniProt P49756) the figure was inactive: -0.109; with RAF1 isoform 2 (UniProt P04049), inactive: -0.167; with RBBP7 (UniProt Q16576), inactive: 0.037.
Same read-out and setting: with RALY (UniProt Q9UKM9) the figure was inactive: -0.031; with R3HDM4 (UniProt Q96D70), inactive: -0.007.
In the case of RAB8B (UniProt Q92930), the log2 fold change is inactive: -0.058.
Still for that read-out and setting: the result for RABGAP1L isoform 5 (UniProt Q5R372) reads inactive: 0.017.
In the case of RAVER1 (UniProt E9PAU2), the log2 fold change is inactive: -0.376.
RABAC1 (UniProt Q9UI14): the log2 fold change is inactive: 0.012.
Same read-out and setting: the result for RAB5C isoform 2 (UniProt P51148) reads inactive: -0.011; that for RAD51 (UniProt Q06609), inactive: 0.004; that for RAD50 isoform 2 (UniProt Q92878), inactive: -0.024.

Compound in another test: CN1CCc2c(c3ccccc3n2Cc2ccc(C(=O)NO)cc2)C1 [Tubastatin A]
The description is as above. The method, boiled down: as §1
With RAB11FIP1 (UniProt Q6WKZ4), the log2 fold change is inactive: 0.005.
Turning to RB1CC1 (UniProt Q8TDY2), the log2 fold change was inactive: 0.117.
The same measure, in the same setting: with RAB33B (UniProt Q9H082) the figure was inactive: 0.013; with RANBP2 (UniProt P49792), inactive: -0.016; with RBM26 isoform 2 (UniProt Q5T8P6), inactive: 0.094.
On the same count and under the same terms, with RBM33 (UniProt Q96EV2) the figure was inactive: 0.007; with RALA (UniProt P11233), inactive: -0.008.
Turning to RAB9A (UniProt P51151), the log2 fold change was inactive: -0.018.
As for RAD50, A0A494C0Y7, the log2 fold change is inactive: -0.079.
Regarding RARS2 (UniProt Q5T160), the log2 fold change is inactive: -0.056.
The same measure, in the same setting: with RAD51D (UniProt O75771) the figure was inactive: -0.023; with RAB3IL1 (UniProt Q8TBN0), inactive: -0.02.
On the same count and under the same terms, with RAC1 (UniProt P63000) the figure was inactive: 0.057; with RBM22 (UniProt Q9NW64), inactive: -0.065.
As for RARS (UniProt P54136), the log2 fold change was inactive: 0.008.
On the same count and under the same terms, with RABGAP1L isoform 3 (UniProt Q5R372) the figure was inactive: -0.059; with RAB3GAP2 (UniProt Q9H2M9), inactive: 0.058; with RBM27 (UniProt Q9P2N5), inactive: 0.013.
Consider RAC3 (UniProt P60763), for which the log2 fold change is inactive: -0.081.
For RBM25 (UniProt P49756), the log2 fold change was inactive: 0.058.
Consider RBM14 (UniProt Q96PK6), for which the log2 fold change was inactive: 0.128.
On the same count and under the same terms, the result for RAF1 isoform 2 (UniProt P04049) reads inactive: -0.036; that for RALY (UniProt Q9UKM9), inactive: 0.226; that for R3HDM4 (UniProt Q96D70), inactive: 0.281.
The same measure, in the same setting: the result for RAB8B (UniProt Q92930) reads inactive: -0.054.
The same measure, in the same setting: the result for RABGAP1L isoform 5 (UniProt Q5R372) reads inactive: -0.056; that for RAVER1 (UniProt E9PAU2), inactive: 0.413; that for RABAC1 (UniProt Q9UI14), inactive: 0.045.
In the case of RAB5C isoform 2 (UniProt P51148), the log2 fold change was inactive: 0.013.
RAD51 (UniProt Q06609): the log2 fold change was inactive: 0.099.
For the target RAD50 isoform 2 (UniProt Q92878), the log2 fold change was inactive: -0.025.

The record behind these values is the supplement of paper PMC10849652.
